# Experimental data: PubChem BioAssay AID1224826 (NIAID, 2016)
# Aim: 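Knock-downs that raise or lower Tnf reporter signal after endotoxin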 (primary screen)
# Cells: RAW264.7 G9 macrophages from mouse bearing reporters for p65 (GFP) and the Tnf promoter (mCherry)
# Reagent: siRNA pool against mouse genes, 100 nM
# Duration: 16 h of LPS stimulation, after 2 days of siRNA transfection
# Conditions: bacterial lipopolysaccharide (Salmonella minnesota R595), 10 ng/ml
# Measured: 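Nuclear mCherry signal of the Tnf promoter reporter measured by imaging after background removal, scaled to each plate median and turned into robust z-scores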
# Scale: Tnf reporter robust z-score: higher = stronger Tnf promoter reporter signal after LPS; Tnf reporter intensity: higher = stronger Tnf promoter reporter signal
# Hit rule: 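Called active when robust z-score is at most -1.3, matching the median of the Tlr4 knock-down control, or over 3; control wells and wells with under 50 cells never active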
# Meaning of the calls: active = Tnf reporter clearly lowered or raised; inactive = no clear change in Tnf reporter
# In all, the deposit lists about 17,000 reagents; this is a part drawn at random. About 1,110 of them (6.6%) count as active. 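Active means lowered or raised reporter signal; replicate intensities are raw and not normalised per plate.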 Reagents against one gene are numbered here.
gene symbol,reagent no.,Tnf reporter robust z-score,fewer than 50 cells in well,"Tnf reporter intensity, replicate 1","Tnf reporter intensity, replicate 2",call
Arhgap11a (Rho GTPase activating protein 11A),1,-0.67,enough cells in well,158,127,inactive
Vma12 (vacuolar ATPase assembly factor VMA12),1,-0.67,enough cells in well,148,155,inactive
Exoc7 (exocyst complex component 7),1,,fewer than 50 cells per well; well left out of calls,84.2,62.9,inactive
Dpp7 (dipeptidylpeptidase 7),1,-0.46,enough cells in well,162,95,inactive
Icosl (icos ligand),1,1.67,enough cells in well,279,220,inactive
Or1j21 (olfactory receptor family 1 subfamily J member 21),1,,fewer than 50 cells per well; well left out of calls,46.3,0,inactive
Or4k77 (olfactory receptor family 4 subfamily K member 77),1,2.53,enough cells in well,335,223,inactive
Tspyl2 (TSPY-like 2),1,-0.93,enough cells in well,138,72.5,inactive
Slc8a2,1,,fewer than 50 cells per well; well left out of calls,98,122,inactive
"Abcc1 (ATP-binding cassette, sub-family C member 1)",1,0.25,enough cells in well,158,186,inactive
Or8b46 (olfactory receptor family 8 subfamily B member 46),1,1.6,enough cells in well,202,228,inactive
Mrpl48 (mitochondrial ribosomal protein L48),1,1.03,enough cells in well,186,209,inactive
Or5b121 (olfactory receptor family 5 subfamily B member 121),1,0.44,enough cells in well,173,163,inactive
Gabrp (gamma-aminobutyric acid type A receptor subunit pi),1,0.33,enough cells in well,286,261,inactive
B3galnt1,1,1.45,enough cells in well,285,215,inactive
Spata31f3 (spermatogenesis associated 31 subfamily F member 3),1,1.41,enough cells in well,141,244,inactive
Il25 (interleukin 25),1,3.15,enough cells in well,404,222,active
Pycr3 (pyrroline-5-carboxylate reductase 3),1,0.22,enough cells in well,342,214,inactive
Fcmr (Fc fragment of IgM receptor),1,-0.47,enough cells in well,124,142,inactive
Zfp292 (zinc finger protein 292),1,0.25,enough cells in well,125,146,inactive
"Kcnj8 (potassium inwardly-rectifying channel, subfamily J, member 8)",1,0.13,enough cells in well,233,169,inactive
1700013G24Rik (RIKEN cDNA 1700013G24 gene),1,-0.49,enough cells in well,172,69.4,inactive
Rwdd3 (RWD domain containing 3),1,1.42,enough cells in well,284,130,inactive
Rwdd3 (RWD domain containing 3),2,-1.64,enough cells in well,70.7,43.4,active
Ccdc163 (coiled-coil domain containing 163),1,-0.14,enough cells in well,281,65.1,inactive
Or7e168 (olfactory receptor family 7 subfamily E member 168),1,0.43,enough cells in well,378,81.7,inactive
Cep83 (centrosomal protein 83),1,,fewer than 50 cells per well; well left out of calls,175,74.9,inactive
Nek5 (NIMA (never in mitosis gene a)-related expressed kinase 5),1,0.06,enough cells in well,225,139,inactive
C5ar2 (complement component 5a receptor 2),1,-1.42,enough cells in well,109,160,active
Tnp1 (transition protein 1),1,4.03,enough cells in well,271,55.9,active
"Hsp90b1 (heat shock protein 90, beta (Grp94), member 1)",1,-1.34,enough cells in well,139,111,active
Nsfl1c (NSFL1 (p97) cofactor (p47)),1,,fewer than 50 cells per well; well left out of calls,77.3,56.1,inactive
"Snca (synuclein, alpha)",1,-0.91,enough cells in well,184,157,inactive
Tdrd7 (tudor domain containing 7),1,-0.2,enough cells in well,252,103,inactive
Laptm4b (lysosomal-associated protein transmembrane 4B),1,-0.55,enough cells in well,147,114,inactive
1700067P10Rik (RIKEN cDNA 1700067P10 gene),1,1.27,enough cells in well,288,127,inactive
Mak16 (MAK16 homolog),1,-0.58,enough cells in well,202,84.2,inactive
"Cyp2c23 (cytochrome P450, family 2, subfamily c, polypeptide 23)",1,-1.96,enough cells in well,61.7,80.4,active
3110070M22Rik (RIKEN cDNA 3110070M22 gene),1,,fewer than 50 cells per well; well left out of calls,111,23.5,inactive
Ndufc1 (NADH:ubiquinone oxidoreductase subunit C1),1,-0.11,enough cells in well,273,71.8,inactive
Mrpl13 (mitochondrial ribosomal protein L13),1,0.11,enough cells in well,272,214,inactive
Desi2 (desumoylating isopeptidase 2),1,,fewer than 50 cells per well; well left out of calls,50.3,86.3,inactive
Or51a24 (olfactory receptor family 51 subfamily A member 24),1,,fewer than 50 cells per well; well left out of calls,24.2,49.1,inactive
Prop1 (paired like homeodomain factor 1),1,-0.93,enough cells in well,174,127,inactive
Sgip1 (SH3-domain GRB2-like (endophilin) interacting protein 1),1,,fewer than 50 cells per well; well left out of calls,194,69.5,inactive
Stfa1 (stefin A1),1,0.66,enough cells in well,167,81,inactive
Srsf19 (serine and arginine rich splicing factor 19),1,,fewer than 50 cells per well; well left out of calls,136,70.6,inactive
Uqcc1 (ubiquinol-cytochrome c reductase complex assembly factor 1),1,1.94,enough cells in well,292,226,inactive
Rtl1 (retrotransposon Gaglike 1),1,2.45,enough cells in well,259,207,inactive
Htr1d (5-hydroxytryptamine (serotonin) receptor 1D),1,-0.13,enough cells in well,208,278,inactive
Cd200r4 (CD200 receptor 4),1,1.91,enough cells in well,365,252,inactive
Grap2 (GRB2-related adaptor protein 2),1,-0.29,enough cells in well,238,185,inactive
H3c1 (H3 clustered histone 1),1,0.37,enough cells in well,344,139,inactive
Gem (GTP binding protein overexpressed in skeletal muscle),1,0.81,enough cells in well,347,282,inactive
Hid1 (HID1 domain containing),1,-1.09,enough cells in well,70.5,103,inactive
Rpl11 (ribosomal protein L11),1,-2.02,enough cells in well,120,51.1,active
Lrfn1,1,-0.67,enough cells in well,134,124,inactive
Hltf (helicase-like transcription factor),1,1.05,enough cells in well,376,293,inactive

Active calls (from the list above):
gene symbol,reagent no.,Tnf reporter robust z-score,fewer than 50 cells in well,"Tnf reporter intensity, replicate 1","Tnf reporter intensity, replicate 2",call
Il25 (interleukin 25),1,3.15,enough cells in well,404,222,active
Rwdd3 (RWD domain containing 3),2,-1.64,enough cells in well,70.7,43.4,active
C5ar2 (complement component 5a receptor 2),1,-1.42,enough cells in well,109,160,active
Tnp1 (transition protein 1),1,4.03,enough cells in well,271,55.9,active
"Hsp90b1 (heat shock protein 90, beta (Grp94), member 1)",1,-1.34,enough cells in well,139,111,active
"Cyp2c23 (cytochrome P450, family 2, subfamily c, polypeptide 23)",1,-1.96,enough cells in well,61.7,80.4,active
Rpl11 (ribosomal protein L11),1,-2.02,enough cells in well,120,51.1,active
